Article PMC11024185

How the values were obtained:
[1] = molecular target: T1, Ssf1-3xFLAG-3C-2xProteinA (S. cerevisiae) (UniProt P38789); experiment: affinity purification with mass spectrometry; purification of pre-60S intermediates from a drs1 R569Q strain by tags on Drs1 R569Q (3x-Strep) and Ssf1 (2x-ProtA); Coomassie-stained 4-20% SDS-PAGE
T1 sequence: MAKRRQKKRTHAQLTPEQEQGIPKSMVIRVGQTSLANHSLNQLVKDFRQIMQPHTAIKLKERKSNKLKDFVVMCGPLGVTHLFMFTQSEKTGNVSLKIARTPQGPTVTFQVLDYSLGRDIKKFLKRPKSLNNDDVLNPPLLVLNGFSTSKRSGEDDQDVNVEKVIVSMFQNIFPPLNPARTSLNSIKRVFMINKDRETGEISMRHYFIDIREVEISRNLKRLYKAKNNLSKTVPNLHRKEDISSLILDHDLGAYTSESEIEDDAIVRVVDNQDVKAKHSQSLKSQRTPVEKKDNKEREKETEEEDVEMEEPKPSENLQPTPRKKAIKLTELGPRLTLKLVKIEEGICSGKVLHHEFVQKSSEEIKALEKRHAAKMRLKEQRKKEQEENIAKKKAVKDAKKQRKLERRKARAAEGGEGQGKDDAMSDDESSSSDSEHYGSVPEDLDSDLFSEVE

[2] = molecular target: T2, Dbp10 (2xStrep-bdNEDD8-DBP10) (S. cerevisiae) (UniProt Q12389); experiment: affinity purification with mass spectrometry; split-tag purification of pre-60S particles from steady state DBP10 yeast: IgG Sepharose on Ssf1-2xProteinA, 3C cleavage, then Strep-Tactin on 2xStrep-Dbp10, desthiobiotin elution; buffers with 50 µM ADP-BeF3; Coomassie-stained 4-20% SDS-PAGE, bands named by molecular weight, ambiguous bands by mass spectrometry
T2 sequence: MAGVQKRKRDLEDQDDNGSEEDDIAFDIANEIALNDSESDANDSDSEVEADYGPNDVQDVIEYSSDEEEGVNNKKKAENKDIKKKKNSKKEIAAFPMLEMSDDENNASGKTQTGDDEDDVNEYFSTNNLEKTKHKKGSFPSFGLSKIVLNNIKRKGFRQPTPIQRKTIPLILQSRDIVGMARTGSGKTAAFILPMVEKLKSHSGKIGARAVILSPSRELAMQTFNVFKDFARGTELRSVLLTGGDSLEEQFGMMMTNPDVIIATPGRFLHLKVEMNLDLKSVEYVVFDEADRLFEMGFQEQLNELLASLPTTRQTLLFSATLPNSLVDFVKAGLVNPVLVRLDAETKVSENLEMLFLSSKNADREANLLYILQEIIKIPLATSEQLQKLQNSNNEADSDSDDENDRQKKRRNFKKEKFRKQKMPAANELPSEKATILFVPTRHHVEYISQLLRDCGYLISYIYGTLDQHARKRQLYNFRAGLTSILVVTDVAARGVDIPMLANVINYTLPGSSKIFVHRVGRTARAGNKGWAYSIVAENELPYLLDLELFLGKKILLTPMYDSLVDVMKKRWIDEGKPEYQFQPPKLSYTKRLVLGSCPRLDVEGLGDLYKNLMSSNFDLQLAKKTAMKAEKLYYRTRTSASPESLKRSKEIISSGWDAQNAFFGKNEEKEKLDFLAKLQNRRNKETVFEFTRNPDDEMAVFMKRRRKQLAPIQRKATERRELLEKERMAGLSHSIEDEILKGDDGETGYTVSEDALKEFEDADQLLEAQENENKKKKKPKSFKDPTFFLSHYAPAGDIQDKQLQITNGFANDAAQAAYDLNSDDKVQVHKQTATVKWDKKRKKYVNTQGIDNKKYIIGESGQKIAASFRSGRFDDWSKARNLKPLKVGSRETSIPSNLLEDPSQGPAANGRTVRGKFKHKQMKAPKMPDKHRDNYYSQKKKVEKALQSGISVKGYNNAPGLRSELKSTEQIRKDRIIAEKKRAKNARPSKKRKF

[3] = molecular target: T1, Ssf1-3xFLAG-3C-2xProteinA (S. cerevisiae); experiment: as above
[4] = molecular target: T2, Dbp10 (2xStrep-bdNEDD8-DBP10) (S. cerevisiae); experiment: affinity purification with mass spectrometry; split-tag purification of pre-60S particles from SPB4-AID yeast without and with auxin (0.5 mM IAA, 45 min): IgG Sepharose on Noc2-2xProteinA, 3C cleavage, then Strep-Tactin on 2xStrep-Dbp10; buffers with 50 µM ADP-BeF3; Coomassie-stained 4-20% SDS-PAGE, bands named by molecular weight, ambiguous bands by mass spectrometry; auxin gave ~10-fold enrichment of the particle
[5] = molecular target: T3, Noc2-3xFLAG-3C-2xProteinA (S. cerevisiae) (UniProt P39744); experiment: as above
T3 sequence: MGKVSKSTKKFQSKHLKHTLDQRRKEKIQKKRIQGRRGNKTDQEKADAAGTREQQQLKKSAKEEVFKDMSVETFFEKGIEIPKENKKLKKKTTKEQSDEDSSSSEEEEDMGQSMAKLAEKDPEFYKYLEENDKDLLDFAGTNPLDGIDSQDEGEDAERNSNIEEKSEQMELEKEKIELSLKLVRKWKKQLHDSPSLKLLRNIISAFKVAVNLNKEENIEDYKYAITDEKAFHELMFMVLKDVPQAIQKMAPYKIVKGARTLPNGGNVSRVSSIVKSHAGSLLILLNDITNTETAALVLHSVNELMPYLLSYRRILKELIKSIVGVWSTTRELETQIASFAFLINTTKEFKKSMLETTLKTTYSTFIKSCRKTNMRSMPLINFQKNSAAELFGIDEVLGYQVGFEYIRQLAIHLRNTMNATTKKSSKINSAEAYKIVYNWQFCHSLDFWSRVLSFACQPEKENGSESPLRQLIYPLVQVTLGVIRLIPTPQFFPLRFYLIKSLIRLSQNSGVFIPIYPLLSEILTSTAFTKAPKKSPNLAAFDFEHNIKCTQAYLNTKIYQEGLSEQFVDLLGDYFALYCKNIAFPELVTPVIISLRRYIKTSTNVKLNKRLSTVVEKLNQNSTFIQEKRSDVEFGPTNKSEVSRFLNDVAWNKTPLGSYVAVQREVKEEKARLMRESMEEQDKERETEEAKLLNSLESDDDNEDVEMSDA

Measured: binding

B1: Ebp2 (protein, UniProt P36049 1-427)
chain: MAKGFKLKELLSHQKEIEKAEKLENDLKKKKSQELKKEEPTIVTASNLKKLEKKEKKADVKKEVAADTEEYQSQALSKKEKRKLKKELKKMQEQDATEAQKHMSGDEDESGDDREEEEEEEEEEEGRLDLEKLAKSDSESEDDSESENDSEEDEDVVAKEESEEKEEQEEEQDVPLSDVEFDSDADVVPHHKLTVNNTKAMKHALERVQLPWKKHSFQEHQSVTSETNTDEHIKDIYDDTERELAFYKQSLDAVLVARDELKRLKVPFKRPLDYFAEMVKSDEHMDKIKGKLIEEASDKKAREEARRQRQLKKFGKQVQNATLQKRQLEKRETLEKIKSLKNKRKHNEIDHSEFNVGVEEEVEGKRFDRGRPNGKRAAKNAKYGQGGMKRFKRKNDATSSADVSGFSSRKMKGKTNRPGKSRRARRF
binds: all assays above

B2: Cic1 (protein, UniProt P38779 1-376)
chain: MAKKSNSKKSTPVSTPSKEKKKVIEKKSSTAIPRERVIKAVNELIKFTSKPQDENNEEGNNGKKNLLEDDEEELKKDLQLIVVNNKSFTGTSKSFKLKLLNVKHSFYKPWKEASATAVKDFKVLLILKDSDIKKVSEDDLFDQLDSEGIKVDEIICGKDLKTVYKAYEARNAFISQFSLILADDSIVTSLPKLMGGKAYNKVETTPISIRTHANKEFSLTTLTNNIKKVYMNQLPVKLPRGTTLNVHLGNLEWLRPEEFVDNVELISEQLIKAYQIRSIFIKTNRSPVLPLYYNQDVLDELEAKKDKIEETHEDDMVTIDGVQVHLSTFNKGLMEIANPSELGSIFSKQINNAKKRSSSELEKESSESEAVKKAKS
binds: all assays above

B3: Nop7 (protein, UniProt P53261 1-605)
chain: MRIKKKNTRGNARNFITRSQAVRKLQVSLADFRRLCIFKGIYPREPRNKKKANKGSTAPTTFYYAKDIQYLMHEPVLAKFREHKTFARKLTRALGRGEVSSAKRLEENRDSYTLDHIIKERYPSFPDAIRDIDDALNMLFLFSNLPSTNQVSSKIINDAQKICNQWLAYVAKERLVRKVFVSIKGVYYQANIKGEEVRWLVPFKFPENIPSDVDFRIMLTFLEFYSTLLHFVLYKLYTDSGLIYPPKLDLKKDKIISGLSSYILESRQEDSLLKLDPTEIEEDVKVESLDASTLKSALNADEANTDETEKEEEQEKKQEKEQEKEQNEETELDTFEDNNKNKGDILIQPSKYDSPVASLFSAFVFYVSREVPIDILEFLILSCGGNVISEAAMDQIENKKDIDMSKVTHQIVDRPVLKNKVAGRTYIQPQWIFDCINKGELVPANKYLPGEALPPHLSPWGDAIGYDPTAPVEEGEEEESESESESEDQVEEEDQEVVAGEEDDDDDEELQAQKELELEAQGIKYSETSEADKDVNKSKNKKRKVDEEEEEKKLKMIMMSNKQKKLYKKMKYSNAKKEEQAENLKKKKKQIAKQKAKLNKLDSKK
binds: all assays above

These are yes or no findings as the source states them, for the method shown. Binding seen in cells or lysates may run through a third protein. Here binding means that the protein was enriched with, or labelled near, the bait; the list need not be complete. For part of these data: Where a sequence is shown, tags or fusion partners need not be part of it.
